Experimental data as given in article PMC7056645.
These are yes or no findings as the source states them, for the method shown. Binding seen in cells or lysates may run through a third protein. Some entries that bind do so weakly or less than the wild type.

Protein sequences, listed by entry. Tags and fused reporters are not part of them.
UniProt O00629: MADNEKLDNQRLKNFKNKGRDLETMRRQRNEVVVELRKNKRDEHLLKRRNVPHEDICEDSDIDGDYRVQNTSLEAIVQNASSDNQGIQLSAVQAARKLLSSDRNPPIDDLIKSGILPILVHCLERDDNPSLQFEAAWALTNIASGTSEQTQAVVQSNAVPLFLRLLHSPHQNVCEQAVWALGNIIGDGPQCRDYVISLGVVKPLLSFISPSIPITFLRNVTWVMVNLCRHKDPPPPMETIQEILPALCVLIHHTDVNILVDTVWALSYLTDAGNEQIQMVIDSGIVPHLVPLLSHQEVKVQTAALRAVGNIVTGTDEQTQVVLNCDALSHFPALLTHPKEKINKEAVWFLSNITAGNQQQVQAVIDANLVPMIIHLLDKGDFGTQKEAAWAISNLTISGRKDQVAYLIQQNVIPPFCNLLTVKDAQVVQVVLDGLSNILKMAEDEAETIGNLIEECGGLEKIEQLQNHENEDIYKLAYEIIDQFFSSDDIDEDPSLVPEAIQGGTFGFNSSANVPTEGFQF
UniProt Q14974: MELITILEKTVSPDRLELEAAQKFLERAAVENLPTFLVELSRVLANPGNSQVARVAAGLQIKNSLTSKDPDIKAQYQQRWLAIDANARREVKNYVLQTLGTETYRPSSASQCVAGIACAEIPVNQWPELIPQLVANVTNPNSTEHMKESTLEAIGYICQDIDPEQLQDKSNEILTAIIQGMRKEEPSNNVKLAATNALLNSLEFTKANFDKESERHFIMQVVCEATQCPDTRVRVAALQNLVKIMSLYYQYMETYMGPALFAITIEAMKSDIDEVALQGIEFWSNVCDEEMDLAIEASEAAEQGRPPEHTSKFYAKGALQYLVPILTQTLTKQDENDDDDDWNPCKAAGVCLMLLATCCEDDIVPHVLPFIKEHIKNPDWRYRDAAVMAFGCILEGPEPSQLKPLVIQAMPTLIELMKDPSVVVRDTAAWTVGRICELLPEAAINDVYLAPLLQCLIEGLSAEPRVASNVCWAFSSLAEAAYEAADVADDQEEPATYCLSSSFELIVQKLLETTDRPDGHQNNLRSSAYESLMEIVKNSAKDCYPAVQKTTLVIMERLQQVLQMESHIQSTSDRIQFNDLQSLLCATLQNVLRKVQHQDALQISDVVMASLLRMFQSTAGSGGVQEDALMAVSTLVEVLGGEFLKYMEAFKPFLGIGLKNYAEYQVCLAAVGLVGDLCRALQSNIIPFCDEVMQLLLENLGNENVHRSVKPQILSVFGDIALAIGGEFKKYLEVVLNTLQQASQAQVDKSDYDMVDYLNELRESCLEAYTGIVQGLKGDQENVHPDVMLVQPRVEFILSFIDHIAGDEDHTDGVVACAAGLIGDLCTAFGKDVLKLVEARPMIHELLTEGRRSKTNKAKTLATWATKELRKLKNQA

Molecular target: karyopherin-α4 (KPNA4) with C-terminal FLAG-HA-His6 tag (human) (UniProt O00629)
Assay: pull-down; His-tag pull-down (Dynabeads His-Tag Isolation & Pulldown) from lysate of SAS cells stably expressing KPNA4-tag, with or without U0126 (10 μM, 24 h); western blot for KPNB1

karyopherin-β1 (KPNB1) (from UniProt Q14974 1-876)
binding: binds
